Record: PubChem BioAssay AID1159578 (Peter MacCallum Cancer Centre, 2015)

Aim: 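Genome-wide hunt for genes controlling movement of lymphatic endothelial cells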 (primary screen)
System: human lymphatic endothelial cells
Reagents: siRNA pool against human genes, 40 nM
Time to read-out: 48 h after transfection
Measurement: 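Cells stained with dye and imaged after a scratch; covered wound area and nuclei counted, duplicates averaged, migration set against mock wells and turned into a robust z-score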
Direction: migration robust z-score: higher = faster migration into the scratch; nuclei per well: higher = more cells in the well
Active means: 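Migration changed when robust z exceeds 2 or falls below -2 and mean nuclei number is at least 3300; otherwise not called changed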
Calls: active = migration changed; inactive = no migration change, or too few cells
Here is one part, drawn at random, of about 18,000 reagents. About 1,030 of all reagents (5.7%) count as active. 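Inactive calls also include pools with fewer than 3300 nuclei, whose migration was not assessed.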 Raw values are not corrected between plates. Further read-outs or replicates are left out here.

Silencing of NR1H3 (nuclear receptor subfamily 1 group H member 3) gave: migration robust z-score 1.06; nuclei per well, duplicate mean 5364; inactive.
DAG1 (dystroglycan 1) showed migration robust z-score -0.96; nuclei per well, duplicate mean 5768; inactive.
With knock-down of ALPK1 (alpha kinase 1), the screen gave migration robust z-score -4.51; nuclei per well, duplicate mean 2288; inactive.
After knock-down of CCDC61 (coiled-coil domain containing 61), the screen gave migration robust z-score 0.05; nuclei per well, duplicate mean 6512; inactive.
With knock-down of OXSR1 (oxidative stress responsive kinase 1), the record shows migration robust z-score 0.24; nuclei per well, duplicate mean 5006; inactive.
Knock-down of SLC2A3 gave: migration robust z-score -0.54; nuclei per well, duplicate mean 5541; inactive.
After knock-down of ACAA1 (acetyl-CoA acyltransferase 1), the screen gave migration robust z-score 0.08; nuclei per well, duplicate mean 5812; inactive.
After knock-down of LRIT1 (leucine rich repeat, Ig-like and transmembrane domains 1), the record shows migration robust z-score -0.35; nuclei per well, duplicate mean 5104; inactive.
TMED6 (transmembrane p24 trafficking protein 6) showed migration robust z-score 0.68; nuclei per well, duplicate mean 7192; inactive.
With knock-down of PTDSS2 (phosphatidylserine synthase 2), the record shows migration robust z-score 0.34; nuclei per well, duplicate mean 7459; inactive.
HOXB13 (homeobox B13) scored migration robust z-score 0.98; nuclei per well, duplicate mean 5769; inactive.
SIGLEC7 (sialic acid binding Ig like lectin 7) gave migration robust z-score 1.62; nuclei per well, duplicate mean 6412; inactive.
Depletion of DOCK10 (dedicator of cytokinesis 10) gave: migration robust z-score -1.52; nuclei per well, duplicate mean 4646; inactive.
For DACT2 (dishevelled binding antagonist of beta catenin 2) the deposit lists migration robust z-score 0.66; nuclei per well, duplicate mean 4878; inactive.
With knock-down of SPON1 (spondin 1) the results were migration robust z-score 0.56; nuclei per well, duplicate mean 5772; inactive.
After knock-down of DIAPH2 (diaphanous related formin 2), the record shows migration robust z-score -0.05; nuclei per well, duplicate mean 5544; inactive.
For NPY2R (neuropeptide Y receptor Y2), the entry reads migration robust z-score -1.38; nuclei per well, duplicate mean 6580; inactive.
For RBMY1D (RNA binding motif protein Y-linked family 1 member D) the deposit lists migration robust z-score 0.5; nuclei per well, duplicate mean 6409; inactive.
Depletion of DNM1 (dynamin 1) gave: migration robust z-score -0.47; nuclei per well, duplicate mean 5086; inactive.
Knock-down of TAF5 (TATA-box binding protein associated factor 5) resulted in: migration robust z-score 1.09; nuclei per well, duplicate mean 6934; inactive.
After knock-down of CABYR (calcium binding tyrosine phosphorylation regulated), the screen gave migration robust z-score 1.08; nuclei per well, duplicate mean 4925; inactive.

Copied from the listing, 3 entries:
DOCK10 (dedicator of cytokinesis 10) — migration robust z-score: -1.52; nuclei per well, duplicate mean: 4646; call: inactive
DACT2 (dishevelled binding antagonist of beta catenin 2) — migration robust z-score: 0.66; nuclei per well, duplicate mean: 4878; call: inactive
SPON1 (spondin 1) — migration robust z-score: 0.56; nuclei per well, duplicate mean: 5772; call: inactive
